# Experimental data taken from patent EP1621203A1, “RNAIII-inhibiting peptides for treating HIV infection” (Genoscience, priority 2004, dated 2006).
# Not every detail of the peptide structures is certain; ends, links or a residue may be inferred. Where a SMILES comes first, the peptide text is derived from it. Bridges are numbered along the chain shown (N, C = ends). Roman numbers before positions name the chains, in order. Where no end group is shown, it is not given here.
# Test system: HIV-1 NL4-3
# Type: cell-based
# Settings: human PBL, HIV-1 NL4-3 (1,000 TCID50), peptides continuously present
# Protocol: Cell cultures - Human peripheral blood lymphocytes (PBL) obtained from healthy HIV-seronegative donors were isolated by Ficoll-Hypaque gradient centrifugation and maintained in RPMI 1640 with ultraglutamine supplemented with […], 100 U/ml penicillin and […] streptamycin, and 10% heat-inactivated fetal calf serum. Cells were stimulated three days in the medium supplemented with 20 U/ml phytohemagglutinin P before evaluation of the antiviral activity. The human C8166 T-cell line was maintained in RPMI 1640 supplemented with 100 U/ml penicillin and […] streptamycin, and 10% heat-inactivated fetal calf serum.
# Evaluation of antiviral activity on human immune cells - Samples of 3 x 10^5 human PBL in […] are preincubated in 96-well plates with various concentrations of each peptide at 37°C (incubator flushed with 5% CO2). After 1 hour incubation, […] of viral suspension (HIV-1 NL4-3 strain) was added at a multiplicity of infection of 1,000 TCID50 per ml. After three washings, cells were cultured in 24-well plates with 1 ml of RPMI 1640 in the continuous presence of the peptides. The cell culture medium was replaced at day 4 post-infection. During this assay, treatment with antiviral compounds was permanent (before, during and after infection). Toxicity was evaluated through daily cell counts and trypan-blue exclusion assays. Infection of human PBL was assessed daily by virus-induced cytopathic effects (syncytium formation) and after 14 days by quantification of p24 antigen in culture supernatants. Measurements of HIV-1 p24 concentrations in the culture supernatant were achieved by ELISA with a detection cut-off of 5 pg/ml (p24 HIV kit, Perkin-Elmer). Similar assays were performed with human C8166 T-cells. Data on PBL are the mean of two separate experiments realized in duplicate.
row,Compound,IC100 (100% inhibitory concentration)
1,"C[C@@H](O)[C@H](NC(=O)[C@H](Cc1c[nH]c2ccccc12)NC(=O)[C@@H]1CCCN1C(=O)[C@H](CO)NC(=O)[C@@H](N)Cc1ccc(O)cc1)C(=O)N[C@@H](CC(N)=O)C(=O)N[C@@H](Cc1ccccc1)C(=O)NCCCC[C@H](NC(=O)[C@H](Cc1ccccc1)NC(=O)[C@H](CC(N)=O)NC(=O)[C@@H](NC(=O)[C@H](Cc1c[nH]c2ccccc12)NC(=O)[C@@H]1CCCN1C(=O)[C@H](CO)NC(=O)[C@@H](N)Cc1ccc(O)cc1)[C@@H](C)O)C(=O)NCCCC[C@H](NC(=O)[C@H](CCCCNC(=O)[C@H](Cc1ccccc1)NC(=O)[C@H](CC(N)=O)NC(=O)[C@@H](NC(=O)[C@H](Cc1c[nH]c2ccccc12)NC(=O)[C@@H]1CCCN1C(=O)[C@H](CO)NC(=O)[C@@H](N)Cc1ccc(O)cc1)[C@@H](C)O)NC(=O)[C@H](Cc1ccccc1)NC(=O)[C@H](CC(N)=O)NC(=O)[C@@H](NC(=O)[C@H](Cc1c[nH]c2ccccc12)NC(=O)[C@@H]1CCCN1C(=O)[C@H](CO)NC(=O)[C@@H](N)Cc1ccc(O)cc1)[C@@H](C)O)C(N)=O [(YSPWTNF)4-K2-K-NH2] (I: H-YSPWTNFKK-NH2 / II: H-YSPWTNFK / III: H-YSPWTNF / IV: H-YSPWTNF; amide I:8-IV:C, I:9-II:C, II:8-III:C)",> 5 µM
2,YSPITNF-NH2 [YSPITNF-NH2],0.5 to 1 µM
3,YSPWTNF-NH2 [YSPWTNF-NH2],0.5 to 1 µM
